Values of other authors, collected in patent US20200245666A1, “CANNABINOID EMULSIONS, BEVERAGES AND FOODS” (Lighthouse Strategies, LLC, priority 2019, published 2020).
Some results were stated once for a whole list of compounds, not compound by compound.

Conditions: certain vaporizers; Lanz (2016)

**Q.** For CCCCCc1cc(O)c2c(c1)OC(C)(C)[C@@H]1CCC(C)=C[C@@H]21 [THC, Δ9-tetrahydrocannabinol], which bioavailability is on record?
**A.** 50-80%
